{
  "sequences": {"note": "The chains behind the UniProt entries cited, without tags or fusion partners.", "UniProt P18054, whole entry, looked up": "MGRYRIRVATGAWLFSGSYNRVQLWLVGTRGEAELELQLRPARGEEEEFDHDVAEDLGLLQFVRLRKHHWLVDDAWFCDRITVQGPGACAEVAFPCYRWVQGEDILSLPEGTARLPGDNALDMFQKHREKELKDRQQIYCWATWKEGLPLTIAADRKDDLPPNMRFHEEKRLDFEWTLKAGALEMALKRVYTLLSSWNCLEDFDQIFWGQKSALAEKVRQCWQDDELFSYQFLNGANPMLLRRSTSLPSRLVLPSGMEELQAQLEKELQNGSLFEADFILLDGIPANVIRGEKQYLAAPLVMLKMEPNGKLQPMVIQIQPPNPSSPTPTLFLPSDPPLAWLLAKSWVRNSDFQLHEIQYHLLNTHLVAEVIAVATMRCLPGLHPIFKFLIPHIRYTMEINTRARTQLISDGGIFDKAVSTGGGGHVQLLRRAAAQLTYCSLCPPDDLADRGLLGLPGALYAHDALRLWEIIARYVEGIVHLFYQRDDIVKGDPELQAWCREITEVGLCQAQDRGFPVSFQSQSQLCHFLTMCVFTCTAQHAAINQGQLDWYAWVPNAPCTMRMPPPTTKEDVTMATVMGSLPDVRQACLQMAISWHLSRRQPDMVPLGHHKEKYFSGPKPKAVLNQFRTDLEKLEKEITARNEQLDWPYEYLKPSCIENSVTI"},
  "source": "PubChem BioAssay AID1671190",
  "about": "(National Center for Advancing Translational Sciences (NCATS), 2021)",
  "note": "In all, about 580,000 compounds went through this assay and about 6,100 (1.1%) were called active. This list was built around the results that the source calls inconclusive (neither active nor inactive); the mix of calls is not that of the screen. Calls follow the shape of the dose curve; as a rule, active = well fitted inhibition curve with a large enough effect; inconclusive = small, poorly fitted or top-dose-only effect, or another doubt; inactive = no such curve, though single readings can be large or run the other way. Potencies beside an inconclusive call are fits to weak or partial responses and may not hold up. % is scaled to controls: 0 for no effect and ±100 for the full control effect; potency is read from the fitted curve at half-maximal effect.",
  "data": [
    {"biological_target": "Polyunsaturated fatty acid lipoxygenase ALOX12 (Homo sapiens) (UniProt P18054)", "test": "Primary qHTS assay for inhibitors of human arachidonate 12S-lipoxygenase (ALOX12): Round 2", "settings": "purified 12hLO, xylenol orange hydroperoxide absorbance; activity change, negative = inhibition: at 108 µM (top of the series) unless noted", "method_in_brief": "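Purified human 12hLO (150 nM final) in 25 mM Hepes, 0.01% Triton X-100, pH 7.0 was preincubated 15 min at room temperature with compound. Then 40 uM arachidonic acid was added, 30 min. Hydroperoxide was read by Fe-XO absorbance ratio 573/405 nm.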", "values": [
      {"smiles": "O=C(Nc1nc2cc3c(cc2s1)OCO3)C1CC1", "activity change, negative = inhibition": "inactive: -5.68%"},
      {"smiles": "Nn1c(Cc2cccc3ccccc23)nnc1SCc1c(F)cccc1Cl", "activity change, negative = inhibition": "inactive: -5.45%"},
      {"smiles": "CCCn1c2c(c(O)c(C(=O)NC)c1=O)CCCC2", "Potency": "inconclusive: 50.1 µM [inhibitor, partial curve, poor fit]"},
      {"smiles": "Cc1n[nH]c(=O)c2c(NC(=O)CSc3c(Cl)cccc3Cl)oc(C)c12", "Potency": "inconclusive: 1.58 µM [inhibitor, full curve, poor fit]"},
      {"smiles": "CCOC(=O)CSc1nc2c(cc1C#N)CCCC2", "activity change, negative = inhibition": "inactive: -6.87%"},
      {"smiles": "O=C(c1cc(-c2ccc(F)cc2)n[nH]1)N1CCN(C(=O)c2ccc(Br)o2)CC1", "activity change, negative = inhibition": "inactive: -6.69%"},
      {"smiles": "Cc1ccc(S(=O)(=O)O/N=C2/CCCc3occc32)cc1", "Potency": "inconclusive: 35.5 µM [inhibitor, partial curve, poor fit]"},
      {"smiles": "NS(=O)(=O)c1ccc(N2N=C(c3ccccc3)CC2c2ccccc2Br)cc1", "note": "(stereo not given)", "activity change, negative = inhibition": "inactive: -9.93%"},
      {"smiles": "CC(=O)c1ccc(Nc2ccc([N+](=O)[O-])c3nonc23)cc1", "activity change, negative = inhibition": "inactive: -3.75%"},
      {"smiles": "Cc1cccc(Nc2nnc(SCC(O)=C(C#N)c3nc4ccccc4[nH]3)s2)c1", "Potency": "inconclusive: 79.4 µM [inhibitor, partial curve, poor fit]"},
      {"smiles": "CN(C)CCNc1oc(COc2ccc(Cl)cc2)nc1C#N", "Potency": "inactive"},
      {"smiles": "c1ccc(CCCNCCCn2cnc3c(OCc4ccccc4)ncnc32)cc1", "Potency": "inconclusive: 39.8 µM [inhibitor, partial curve, poor fit]"},
      {"smiles": "CCCn1c(N)c(N(CCOC)C(=O)c2ccccc2F)c(=O)[nH]c1=O", "activity change, negative = inhibition": "inconclusive: -32% [inhibitor]"},
      {"smiles": "COc1cccc(CN2CCCC3(CCN(C(=O)c4ccc(OC)nc4OC)C3)C2)c1", "note": "(stereo not given)", "activity change, negative = inhibition": "inactive: -13.9%"},
      {"smiles": "Cc1cc(C)c(S(=O)(=O)N(CC(=O)O)CC(=O)O)c(C)c1", "Potency": "inconclusive: 35.5 µM [inhibitor, partial curve]"},
      {"smiles": "Cc1ccc(NC(=O)CN(C)C(=O)c2ccc(S(=O)(=O)Nc3ccc(Cl)cc3)cc2)cc1", "Potency": "active: 7.94 µM"},
      {"smiles": "CC1Cc2ccccc2N1C(=O)CCS(=O)(=O)c1ccc2c(c1)NC(=O)CS2", "note": "(stereo not given)", "activity change, negative = inhibition": "inactive: 5.69%"},
      {"smiles": "COC(=O)c1ccc(NC(=O)N2CC3CN(C(C)C)CC(C2)O3)cc1", "Potency": "inconclusive: 15.8 µM [inhibitor, full curve, poor fit]"},
      {"smiles": "Cc1ccc(C)n1C1C(=O)N(Cc2ccc(C(C)C)cc2)c2c(F)cccc21", "note": "(stereo not given)", "Potency": "active: 31.6 µM"},
      {"smiles": "COCCN(Cc1ccco1)C(=O)c1cc(S(C)(=O)=O)ccc1C", "activity change, negative = inhibition": "inactive: -12.2%"},
      {"smiles": "COC(=O)C1=C(C)C(C(C)=O)(C(=O)OC)NC(C)=C1c1ccccc1Cl", "note": "(stereo not given)", "Potency": "inconclusive: 11.2 µM [inhibitor, full curve]"},
      {"smiles": "O=C(/C=C/c1ccc([N+](=O)[O-])cc1)Nc1ncc([N+](=O)[O-])s1", "activity change, negative = inhibition": "inactive: 0%"},
      {"smiles": "CC(C)CNC(=O)CCc1cccnc1", "activity change, negative = inhibition": "inactive: -5.96%"},
      {"smiles": "Cc1cc(C)cc(-n2c3ccc(NC(=S)NC4CCCCC4)cc3c(=O)n2C)c1", "Potency": "inconclusive: 44.7 µM [inhibitor, partial curve, poor fit]"},
      {"smiles": "Cc1cc(N2CCOCC2)nc2ccc(NC(=O)Nc3ccccc3)cc12", "activity change, negative = inhibition": "inactive: -20%"},
      {"smiles": "COc1cc(C(=O)NC(=S)Nc2ccc3c(c2)OCO3)cc(OC)c1OC", "activity change, negative = inhibition": "inactive: -28.6%"},
      {"smiles": "Fc1ccc(-n2nnc(-c3cccnc3Cl)n2)cc1", "activity change, negative = inhibition": "inactive: 1.44%"},
      {"smiles": "CSc1ccccc1NC(=O)CN(c1ccccc1Br)S(C)(=O)=O", "Potency": "inconclusive: 5.01 µM [inhibitor, full curve, poor fit]"},
      {"smiles": "CCOc1ccc(C2C(C(=O)c3sc(C)nc3C)=C(O)C(=O)N2CCN2CCOCC2)cc1", "note": "(stereo not given)", "Potency": "inconclusive: 8.91 µM [inhibitor, full curve, poor fit]"},
      {"smiles": "N#Cc1nc(-c2ccc([N+](=O)[O-])cc2)oc1NC1CC1", "Potency": "inconclusive: 112 µM [inhibitor, single point]"},
      {"smiles": "COc1ccc(NC(=O)N2CCc3c(C(=O)Nc4ccccc4)cccc32)cc1", "activity change, negative = inhibition": "inactive: 0.954%"},
      {"smiles": "CCCCCCSC1=C(C#N)C(c2ccc(CC)cc2)CC(=O)N1", "note": "(stereo not given)", "Potency": "inconclusive: 11.2 µM [inhibitor, partial curve, poor fit]"},
      {"smiles": "CC(C)C(=O)N1CCN(c2nc3c([nH]2)c(=O)n(C)c(=O)n3C)CC1", "Potency": "inconclusive: 39.8 µM [inhibitor, partial curve, poor fit]"},
      {"smiles": "COC(=O)C1=CN(c2ccc(Oc3ccccc3)cc2)C(N)=C(C#N)C1c1ccccc1", "note": "(stereo not given)", "Potency": "inconclusive: 50.1 µM [inhibitor, partial curve, poor fit]"},
      {"smiles": "COc1ccc(-c2cn(-c3ccc(C)c(Cl)c3)c(=S)[nH]2)cc1OC", "Potency": "inconclusive: 39.8 µM [inhibitor, partial curve, poor fit]"},
      {"smiles": "CCOc1ccccc1Nc1nc(-c2sc(NC(=O)c3cccc(Cl)c3)nc2C)cs1", "Potency": "inconclusive: 50.1 µM [inhibitor, partial curve]"},
      {"smiles": "COCCNC(=O)c1cc(C2CC2)nc2c1c(C1CCNC1)nn2C", "note": "(stereo not given)", "Potency": "inconclusive: 22.4 µM [inhibitor, full curve]"},
      {"smiles": "CCOC(=O)C1=C(CN2CCN(c3ccc(OC)cc3)CC2)NC(=O)NC1c1ccc(Cl)cc1", "note": "(stereo not given)", "Potency": "inconclusive: 56.2 µM [inhibitor, partial curve, poor fit]"},
      {"smiles": "CCOc1ccc(NC(=O)C2CCCN(S(=O)(=O)c3c(C)noc3/C=C/N(C)C)C2)cc1", "note": "(stereo not given)", "Potency": "inconclusive: 100 µM [inhibitor, partial curve, poor fit]"},
      {"smiles": "Cc1cc(CN2CCN(c3cccc(C)c3C)CC2)cs1", "Potency": "inconclusive: 39.8 µM [inhibitor, partial curve]"},
      {"smiles": "CC1CCC2(CC1)NC(=O)N(CC(=O)Nc1ccc(Br)cc1F)C2=O", "note": "(stereo not given)", "Potency": "inconclusive: 79.4 µM [inhibitor, single point]"},
      {"smiles": "O=C(Oc1ccc2cc(Br)ccc2c1)C(c1ccccc1)c1ccccc1", "activity change, negative = inhibition": "inactive: 30.2%"},
      {"smiles": "CCC(C)[C@H](NC(=O)N1CCC(C)CC1)C(=O)OC", "note": "(stereo not given in full)", "Potency": "inconclusive: 50.1 µM [inhibitor, partial curve, poor fit]"},
      {"smiles": "COc1ccc2nc(Nc3nc(C)c(Cc4cccc(Cl)c4)c(=O)[nH]3)nc(C)c2c1", "activity change, negative = inhibition": "inactive: 0.845%"},
      {"smiles": "Cc1ccc(/C=N/n2c(-c3ccco3)n[nH]c2=S)s1", "Potency": "inconclusive: 44.7 µM [inhibitor, partial curve, poor fit]"},
      {"smiles": "Fc1ccc2[nH]c(-c3cccs3)cc2c1", "activity change, negative = inhibition": "inactive: 2.12%"},
      {"smiles": "O=C(Nc1cccc(C(F)(F)F)c1)c1cc2nc(-c3ccc4c(c3)OCO4)cc(C(F)(F)F)n2n1", "activity change, negative = inhibition": "inactive: -5.63%"},
      {"smiles": "COc1ccc(-c2nc3ccccc3o2)cc1NC(=O)c1ccc(Br)o1", "activity change, negative = inhibition": "inactive: 12.4%"},
      {"smiles": "COc1ccccc1C(=O)NCCN1CCC(n2c(=O)[nH]c3ccccc32)CC1", "Potency": "inconclusive: 79.4 µM [inhibitor, single point]"},
      {"smiles": "Cc1cccc2c1ccn2CCC(=O)Nc1nnc(C2CC2)s1", "Potency": "inconclusive: 20 µM [inhibitor, full curve]"},
      {"smiles": "C[C@@H](C(=O)N1CCN(C(=O)OC(C)(C)C)CC1)n1cc(CCCN=C(NC(=O)OC(C)(C)C)NC(=O)OC(C)(C)C)nn1", "Potency": "inconclusive: 35.5 µM [inhibitor, partial curve, poor fit]"},
      {"smiles": "Cc1cc2c(c(=O)n1CCN(C)C)C(c1ccncc1)C(C#N)=C(N)O2", "note": "(stereo not given)", "activity change, negative = inhibition": "inactive: -8.42%"},
      {"smiles": "COC(=O)C(C)Sc1nc2ccsc2c(=O)n1Cc1ccccc1", "note": "(stereo not given)", "Potency": "inconclusive: 4.47 µM [inhibitor, full curve, poor fit]"},
      {"smiles": "COc1ccc(-c2ocnc2C(=O)Nc2c(C)cc(C)cc2C)cc1", "Potency": "inconclusive: 35.5 µM [inhibitor, partial curve, poor fit]"},
      {"smiles": "O=C(O)CCC(=O)NNC(=O)CCC1CCCCC1", "activity change, negative = inhibition": "inactive: 25.7%"},
      {"smiles": "Cc1nn(C)cc1-c1cc(C(F)F)c2c(C3CC3)nn(CC(=O)O)c2n1", "Potency": "inconclusive: 31.6 µM [inhibitor, partial curve]"},
      {"smiles": "CC(=O)C1=C(C)N(Cc2ccc(F)cc2)C(=S)NC1c1cccc(F)c1", "note": "(stereo not given)", "Potency": "inconclusive: 44.7 µM [inhibitor, partial curve, poor fit]"},
      {"smiles": "CC(=O)C1=C(C)OC(N)=C(C#N)C1c1cc([N+](=O)[O-])ccc1Cl", "note": "(stereo not given)", "Potency": "inconclusive: 25.1 µM [inhibitor, partial curve, poor fit]"},
      {"smiles": "Cc1ccc(Cn2cc(C(=O)c3ccc4c(c3)OCO4)c(=O)c3cc(C)ccc32)cc1", "Potency": "inconclusive: 63.1 µM [inhibitor, partial curve, poor fit]"},
      {"smiles": "CCN1CCCC1CNCc1cccc(OC)c1OCc1ccc(F)cc1", "note": "(stereo not given)", "Potency": "inconclusive: 5.62 µM [inhibitor, full curve, poor fit]"},
      {"smiles": "CCCNC(=O)c1ccccc1NC(=O)c1ccc2c(c1)NC(=O)C(C)S2", "note": "(stereo not given)", "activity change, negative = inhibition": "inactive: -0.836%"},
      {"smiles": "CC(C)C(=O)N1CCCC(CN2CCOCC2)CC1", "note": "(stereo not given)", "activity change, negative = inhibition": "inactive: 11.1%"},
      {"smiles": "Cc1cc2nc(CS(=O)(=O)c3ccccc3)cc(=O)n2[nH]1", "Potency": "inconclusive: 39.8 µM [inhibitor, partial curve]"},
      {"smiles": "Cn1nc(C(=O)OCC(=O)Nc2ccc(S(=O)(=O)N3CCCCC3)cc2)c2ccccc2c1=O", "Potency": "inconclusive: 89.1 µM [inhibitor, partial curve, poor fit]"},
      {"smiles": "CCCCN1C(C(=O)Nc2cc(C)on2)=C(O)c2ccccc2S1(=O)=O", "Potency": "inconclusive: 31.6 µM [inhibitor, single point]"},
      {"smiles": "Cc1cc(C)cc(NC(=O)Nc2nnc(N(C)C3CCCCC3)s2)c1", "activity change, negative = inhibition": "inactive: -30.2%"},
      {"smiles": "O=C(Nc1c(NC2CCCC2)c2ccccc2oc1=O)c1cccs1", "Potency": "inconclusive: 17.8 µM [inhibitor, single point]"},
      {"smiles": "O=C(NCc1ccnc(OCC(F)(F)F)c1)c1ccco1", "activity change, negative = inhibition": "inactive: 19.8%"},
      {"smiles": "O=C(c1ccccc1[N+](=O)[O-])N1CCC[C@@H]1c1noc2ccccc12", "Potency": "inconclusive: 141 µM [inhibitor, single point]"},
      {"smiles": "O=C(c1ccc(Cl)c(S(=O)(=O)N2CCCC2)c1)N1CCN(c2ccccc2)CC1", "Potency": "inconclusive: 3.98 µM [inhibitor, full curve, poor fit]"}
    ]}
  ]
}
